In the assay the target is rat GST-syndapin III F-BAR (GST+Sdp III aa 1–336; extended F-BAR) (rat). Description: pull-down; agarose-coupled GST-fusion proteins of syndapin III; heart homogenate membrane pellets (100000 x g) solubilised by 1% TritonX-100 in PBS; 3 hr at 4°C; washed, eluted with SDS sample buffer, immunoblotted for cav3; only the target purified. In general terms: A western blot detects proteins with antibodies after separation by electrophoresis.

These are yes or no findings as the source states them, for the method shown. In cells and extracts the contact can be indirect. Binding can be weak; no strength is given.

B1: caveolin3 (protein, UniProt P51637 1-151)
chain: MMTEEHTDLEARIIKDIHCKEIDLVNRDPKNINEDIVKVDFEDVIAEPEGTYSFDGVWKVSFTTFTVSKYWCYRLLSTLLGVPLALLWGFLFACISFCHIWAVVPCIKSYLIEIQCISHIYSLCIRTFCNPLFAALGQVCSNIKVVLRREG
For the molecule B1, the binding result is “binds weakly”.

These data come from paper PMC5716666.
